We go through 5 substances from US7645454 (dated 2010).

A short description of series [1]: solid-phase peptide synthesis.
Series [2] is described as follows: general procedure: Fmoc solid-phase peptide synthesis; Fmoc-PAL-PEG-PS; HBTU (Boc synthesis of 28). The conditions noted are these: whole synthesis, scale 0.25 mmol.
The nature of series [3]: general procedure: Fmoc solid-phase peptide synthesis; NovaSyn TGA resin; HBTU (Boc synthesis of 28). The conditions noted are these: whole synthesis.
The nature of series [4]: solid-phase peptide synthesis. To be noted: whole synthesis, analytical HPLC, LCMS, ESMS, scale of the general procedure 0.25 mmol.

As for “H2N-Ser-Leu-Orn-Ala-Asn-Lys-Glu-Thr-Thr-Glu-Arg-Ile-Asn-Gly-Cys-Ala-Asn(Manβ1→4GlcNAcβ1→4GlcNAcβ1)-Ala-Ser-NH2”, in series [1] (coupling step, based on starting glycopeptide), the step yield was 78% yield.

With “H2N-Cys(S^tBu)-Ala-Asn(Manβ1→4GlcNAcβ1→4GlcNAcβ1)-Ala-Ser-NH2”, in series [1] (late stage modification step), the difficulty met entry is “perhaps due to epimerization of cysteine”. “Fmoc-NH-Cys(S^tBu)-Ile-Arg-Asp-Lys(ivDde)-Ser-NH2” yielded an isolated yield in series [2] (from unfunctionalized resin) of 61% yield. In addition, the isolated mass in series [2] was determined as 157.5 mg. “H2N-Ser-Leu-Orn-Ala-Asn-Lys-Glu-Thr-Thr-Glu-Arg-Ile-Asn-Gly-SEt”: in series [1] (whole synthesis, scale of the general procedure 0.25 mmol), the difficulty met result is given as “Solid phase synthesis of this peptide met with difficulties that were overcome using a pseudoproline”. In series [3], the isolated mass came to 10.3 mg. The isolated yield in series [3] (from unfunctionalized hydroxymethyl resin, scale of the general procedure 0.25 mmol) worked out at 32% yield. For “H2N-Gly-Asp-Ser-Ala-Trp-His-Leu-Gly-Glu-Leu-Val-Trp-Ser-Thr-Gly-S(CH2)2C(O)NH2”, in series [4], the “final HPLC purity” value is on record as >95%.
